Measurements from article PMC5398536.
These are yes or no findings as the source states them, for the method shown. Binding seen in cells or lysates may run through a third protein. Some results given as binding are weak or reduced against the parent protein; the word gives no strength. Sequences can lack the tags named with a protein.

B1: nutrient-deprivation autophagy factor-1 (NAF-1), full length, fused to a split-YFP fragment, Q8N5K1 1-135 (protein)
chain: MVLESVARIVKVQLPAYLKRLPVPESITGFARLTVSEWLRLLPFLGVLALLGYLAVRPFLPKKKQQKDSLINLKIQKENPKVVNEINIEDLCLTKAAYCRCWRSKTFPACDGSHNKHNELTGDNVGPLILKKKEV
B2: mitoNEET (mNT), full length, fused to a split-YFP fragment, Q9NZ45 1-108 (protein)
chain: MSLTSSSSVRVEWIAAVTIAAGTAAIGYLAYKRFYVKDHRNKAMINLHIQKDNPKIVHAFDMEDLGDKAVYCRCWRSKKFPFCDGAHTKHNEETGDNVGPLIIKKKET
B3: nutrient-deprivation autophagy factor-1 (NAF-1), full length, fused to a split-YFP fragment (protein, UniProt Q8N5K1 1-135)
chain: B1 chain
B4: soluble NAF-1 lacking the membrane-anchoring domain, fused to YFPc (domain or fragment, UniProt Q8N5K1 56-135)
chain: VRPFLPKKKQQKDSLINLKIQKENPKVVNEINIEDLCLTKAAYCRCWRSKTFPACDGSHNKHNELTGDNVGPLILKKKEV

Key:
Assay in all cases: split reporter; split-YFP BiFC (YFPn aa 1-174, YFPc aa 175-239) in transiently co-transfected HEK-293 cells; confocal imaging with ER-Tracker or MitoTracker
[1] = target: T1, nutrient-deprivation autophagy factor-1 (NAF-1), full length, fused to a split-YFP fragment (human), Q8N5K1; settings: remark: other sources report otherwise
T1 chain: B1 chain

[2] = target: T2, mitoNEET (mNT), full length, fused to a split-YFP fragment (human), Q9NZ45; settings: remark: other sources report otherwise
T2 chain: B2 chain

[3] = target: T3, mitoNEET (mNT), full length, fused to a split-YFP fragment (human) (UniProt Q9NZ45)
T3 sequence: B2 chain

Binder	binding [3]	also measured
B1	–	binding [1]: binds
B2	–	binding [2]: binds
B3	binds	–
B4	no binding	–
